Measurements reported in PubChem BioAssay AID686938 (Drosophila RNAi Screening Center, 2013).
In all, the deposit lists about 23,000 reagents; this is a random part of those that have a named target and a result. In the full data, 75 (0.33%) got an active call. 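Raw plate signals without normalisation; calls rest on plate z-scores that were not deposited; ratio present for only 364 wells.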 Unmarked entries are inactive. The numbers tell different reagents against one gene apart. Names joined by + are all predicted targets of the reagent. No sequences are given here. Not given: the dose of the treatment.

Test: 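Looking for CRAC channel components and the factors controlling them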 (primary screen)
Cells: Drosophila S2R+ cells
Reagent: long dsRNA against Drosophila genes, about 0.25 µg dsRNA per well, roughly 10,000 cells
Timing: 5 days of knock-down before the calcium assay
Challenge: thapsigargin (SERCA pump blocker) to empty calcium stores; entry signal taken 4 min after adding it
Measurement: 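Duplicate raw fluo-4 intensities per well from a plate reader, at rest and four minutes after thapsigargin emptied calcium stores; entry-to-rest ratio filled for only some wells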
Direction: calcium entry signal: higher = stronger calcium signal after store depletion; resting calcium signal: higher = higher resting calcium signal
Rule for the call: 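Called when the plate z-score of the entry-to-rest ratio, mean of duplicates, falls below −3; wells with low overall dye signal (Fmax z below −2) or more than five off-targets excluded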
Calls: active = strongly reduced calcium entry; inactive = no strong reduction

What did the screen give for CG43795 #1?
calcium entry signal, replicate 1 (fluorescence units): 3.24e7; calcium entry signal, replicate 2 (fluorescence units): 3.73e7; resting calcium signal, replicate 1 (fluorescence units): 1.70e7; resting calcium signal, replicate 2 (fluorescence units): 1.75e7

With CG43795 #2, what was measured?
calcium entry signal, replicate 1 (fluorescence units): 3.84e7; calcium entry signal, replicate 2 (fluorescence units): 3.56e7; resting calcium signal, replicate 1 (fluorescence units): 1.89e7; resting calcium signal, replicate 2 (fluorescence units): 1.54e7

For CG43795 #3, how do the results read?
calcium entry signal, replicate 1 (fluorescence units): 3.46e7; calcium entry signal, replicate 2 (fluorescence units): 4.43e7; resting calcium signal, replicate 1 (fluorescence units): 1.80e7; resting calcium signal, replicate 2 (fluorescence units): 2.08e7

What did the screen give for CG43795 #4?
calcium entry signal, replicate 1 (fluorescence units): 3.78e7; calcium entry signal, replicate 2 (fluorescence units): 4.53e7; resting calcium signal, replicate 1 (fluorescence units): 1.95e7; resting calcium signal, replicate 2 (fluorescence units): 2.05e7

What is on record for CG43795 #5?
calcium entry signal, replicate 1 (fluorescence units): 3.62e7; calcium entry signal, replicate 2 (fluorescence units): 4.68e7; resting calcium signal, replicate 1 (fluorescence units): 1.89e7; resting calcium signal, replicate 2 (fluorescence units): 2.06e7

With CG43795 #6, what was measured?
calcium entry signal, replicate 1 (fluorescence units): 3.31e7; calcium entry signal, replicate 2 (fluorescence units): 4.04e7; resting calcium signal, replicate 1 (fluorescence units): 1.84e7; resting calcium signal, replicate 2 (fluorescence units): 1.85e7

For CG43795 #7, what does the deposit list?
calcium entry signal, replicate 1 (fluorescence units): 2.81e7; calcium entry signal, replicate 2 (fluorescence units): 4.48e7; resting calcium signal, replicate 1 (fluorescence units): 1.41e7; resting calcium signal, replicate 2 (fluorescence units): 2.17e7

Which result is listed for REPTOR?
calcium entry signal, replicate 1 (fluorescence units): 5.07e7; calcium entry signal, replicate 2 (fluorescence units): 4.13e7; resting calcium signal, replicate 1 (fluorescence units): 2.68e7; resting calcium signal, replicate 2 (fluorescence units): 2.01e7

For CG8176, how do the results read?
calcium entry signal, replicate 1 (fluorescence units): 2.93e7; calcium entry signal, replicate 2 (fluorescence units): 2.56e7; resting calcium signal, replicate 1 (fluorescence units): 1.42e7; resting calcium signal, replicate 2 (fluorescence units): 1.36e7

Reformatted: results already given
{"Gene": "CG43795", "reagent": 1, "calcium entry signal, replicate 1 (fluorescence units)": 3.24e7, "calcium entry signal, replicate 2 (fluorescence units)": 3.73e7, "resting calcium signal, replicate 1 (fluorescence units)": 1.70e7, "resting calcium signal, replicate 2 (fluorescence units)": 1.75e7}
{"Gene": "CG43795", "reagent": 2, "calcium entry signal, replicate 1 (fluorescence units)": 3.84e7, "calcium entry signal, replicate 2 (fluorescence units)": 3.56e7, "resting calcium signal, replicate 1 (fluorescence units)": 1.89e7, "resting calcium signal, replicate 2 (fluorescence units)": 1.54e7}

Continued:
For Srr, what does the deposit list?
calcium entry signal, replicate 1 (fluorescence units): 2.79e7; calcium entry signal, replicate 2 (fluorescence units): 2.57e7; resting calcium signal, replicate 1 (fluorescence units): 1.41e7; resting calcium signal, replicate 2 (fluorescence units): 1.33e7

What is on record for CG4259?
calcium entry signal, replicate 1 (fluorescence units): 2.63e7; calcium entry signal, replicate 2 (fluorescence units): 3.21e7; resting calcium signal, replicate 1 (fluorescence units): 1.33e7; resting calcium signal, replicate 2 (fluorescence units): 1.43e7

For Tengl2, how do the results read?
calcium entry signal, replicate 1 (fluorescence units): 3.61e7; calcium entry signal, replicate 2 (fluorescence units): 4.35e7; resting calcium signal, replicate 1 (fluorescence units): 1.68e7; resting calcium signal, replicate 2 (fluorescence units): 2.14e7

For Dgk #1, how do the results read?
calcium entry signal, replicate 1 (fluorescence units): 3.42e7; calcium entry signal, replicate 2 (fluorescence units): 3.46e7; resting calcium signal, replicate 1 (fluorescence units): 1.68e7; resting calcium signal, replicate 2 (fluorescence units): 1.60e7

What did the screen give for Dgk #2?
calcium entry signal, replicate 1 (fluorescence units): 3.02e7; calcium entry signal, replicate 2 (fluorescence units): 3.44e7; resting calcium signal, replicate 1 (fluorescence units): 1.52e7; resting calcium signal, replicate 2 (fluorescence units): 1.61e7

What did the screen give for Dgk #3?
calcium entry signal, replicate 1 (fluorescence units): 5.59e7; calcium entry signal, replicate 2 (fluorescence units): 3.31e7; resting calcium signal, replicate 1 (fluorescence units): 2.17e7; resting calcium signal, replicate 2 (fluorescence units): 1.46e7

For Dgk #4, what was measured?
calcium entry signal, replicate 1 (fluorescence units): 2.31e7; calcium entry signal, replicate 2 (fluorescence units): 4.89e7; resting calcium signal, replicate 1 (fluorescence units): 1.01e7; resting calcium signal, replicate 2 (fluorescence units): 2.26e7

Which result is listed for Dgk #5?
calcium entry signal, replicate 1 (fluorescence units): 3.80e7; calcium entry signal, replicate 2 (fluorescence units): 5.72e7; resting calcium signal, replicate 1 (fluorescence units): 1.99e7; resting calcium signal, replicate 2 (fluorescence units): 2.74e7

Which result is listed for Pstk + Tim9b #1?
calcium entry signal, replicate 1 (fluorescence units): 2.29e7; calcium entry signal, replicate 2 (fluorescence units): 2.47e7; resting calcium signal, replicate 1 (fluorescence units): 1.21e7; resting calcium signal, replicate 2 (fluorescence units): 9.92e6

For Pstk + Tim9b #2, what does the deposit list?
calcium entry signal, replicate 1 (fluorescence units): 3.73e7; calcium entry signal, replicate 2 (fluorescence units): 4.01e7; resting calcium signal, replicate 1 (fluorescence units): 2.03e7; resting calcium signal, replicate 2 (fluorescence units): 1.74e7

Which result is listed for IntS4?
calcium entry signal, replicate 1 (fluorescence units): 2.11e7; calcium entry signal, replicate 2 (fluorescence units): 3.01e7; resting calcium signal, replicate 1 (fluorescence units): 1.21e7; resting calcium signal, replicate 2 (fluorescence units): 1.45e7

For RpL8 #1, how do the results read?
calcium entry signal, replicate 1 (fluorescence units): 1.31e7; calcium entry signal, replicate 2 (fluorescence units): 1.37e7; resting calcium signal, replicate 1 (fluorescence units): 1.02e7; resting calcium signal, replicate 2 (fluorescence units): 9.83e6

With RpL8 #2, how do the results read?
calcium entry signal, replicate 1 (fluorescence units): 1.45e7; calcium entry signal, replicate 2 (fluorescence units): 2.30e7; resting calcium signal, replicate 1 (fluorescence units): 1.08e7; resting calcium signal, replicate 2 (fluorescence units): 1.13e7
